Assay results from PubChem BioAssay AID652054 (National Center for Advancing Translational Sciences (NCATS), 2013).
Among all 360,000 compounds or so, about 9,100 (2.5%) were called active. The shares of active, inactive and inconclusive entries below differ from those in the screen. No stated cut-off is given here; in the data, active means max response below about -50%; inconclusive means no clear call, values can overlap the other calls; inactive means above that.

Chains of the proteins cited; added tags and fusions are not shown.
UniProt P35462, whole entry, looked up: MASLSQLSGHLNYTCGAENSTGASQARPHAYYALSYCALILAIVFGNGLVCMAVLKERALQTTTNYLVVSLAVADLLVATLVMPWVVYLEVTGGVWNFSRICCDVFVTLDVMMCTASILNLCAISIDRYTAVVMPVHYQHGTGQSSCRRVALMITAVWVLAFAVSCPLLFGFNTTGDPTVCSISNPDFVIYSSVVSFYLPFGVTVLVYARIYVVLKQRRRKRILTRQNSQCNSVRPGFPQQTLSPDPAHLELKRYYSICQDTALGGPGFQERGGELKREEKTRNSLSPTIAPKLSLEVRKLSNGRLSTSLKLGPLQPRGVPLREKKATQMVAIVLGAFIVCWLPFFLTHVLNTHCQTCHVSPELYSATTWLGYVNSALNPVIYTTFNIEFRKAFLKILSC

Target: D(3) dopamine receptor (Homo sapiens) (UniProt P35462)
Experiment: qHTS of D3 Dopamine Receptor Antagonist: qHTS
Conditions: D3R cells, DiscoveRx beta-arrestin luminescence, antagonist mode; hits give low values
Outline: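 Cells plated overnight at 1500 cells/well, then exposed to library compounds with dopamine controls for 90 minutes at 37 degrees C. DiscoveRx reagent added for 30–60 minutes at room temperature; luminescence read, quantitative HTS format.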
On the % scale 0 is the no-effect control and ±100 the full control effect.

SMILES | max response, negative = inhibition
CNCCNC[C@H](Cc1cccc2ccccc12)NCCc1ccccc1 | inconclusive: -38.4%
CN(CC1CCN(CCc2cccc(C(F)(F)F)c2)CC1)C(=O)c1ccccc1 | inconclusive: -45.8%
CC(C)c1ccc(C(N)=S)cc1 | inactive: -10.3%
CC1(NC(=O)c2cccc(S(=O)(=O)N3CCN(c4ccccc4)CC3)c2)CCS(=O)(=O)C1 (stereo unspecified) | inconclusive: -36.1%
CS(=O)(=O)c1ccc(S(=O)CC(=O)OCc2ccccc2)c([N+](=O)[O-])c1 (stereo unspecified) | active: -90.2%
C[C@@H]1CN([C@@H](C)CO)C(=O)c2cc(NC(=O)C3CC3)ccc2O[C@H]1CN(C)C | inconclusive: -36.3%
O=C(C=C=Nc1ccccc1)C(=O)N=C=Cc1ccccc1 | inconclusive: -37.4%
COc1ccc(C(=O)O)cc1S(=O)(=O)Nc1cc(Cl)ccc1N1CCOCC1 | inactive: 6.99%
CCOC(=O)c1cc(CC)sc1N1C(=O)CC(Sc2ccccc2C(=O)O)C1=O (stereo unspecified) | inactive: -24.9%
Cc1ccccc1NC(=O)Cc1nc(COC(=O)C(C)(C)Oc2ccc(Cl)cc2)cs1 | inactive: 24.6%
CC(C)CCNC(=O)CNC(=S)N(CCCN1CCOCC1)Cc1cccs1 | inconclusive: -42.4%
COC(=O)[C@H](CCSC)NC(=O)Cn1ccc(N)nc1=O | active: -50.7%
O=C(O)CCc1ccc(-c2ccc(Cl)cc2)n1CCC(=O)O | inactive: 8.49%
COc1nc(C#N)nc(N(C)C)n1 | inconclusive: -40.8%
O=C(NC(NC(=S)Nc1ccccc1)C(Cl)(Cl)Cl)c1cccc(Cl)c1 (stereo unspecified) | inconclusive: -31.5%
Nc1nc(CN2CCC(Cc3ccccc3)CC2)nc(Nc2ccccc2)n1 | inconclusive: -48.7%
Cc1cc(C(=O)COc2cccnc2[N+](=O)[O-])c(C)n1-c1ccccc1F | inactive: 16.3%
Cc1ccc(C(=O)Nc2c(-c3ccc(Cl)cc3)[nH][nH]c2=O)cc1 | active: -69.9%
CCCCCOc1ccc(Br)cc1/C(C)=N/NC1=NCCN1 | inconclusive: -43.4%
COc1ccc(C(=O)CSc2nnc(-c3cccnc3)n2Cc2ccco2)cc1 | inactive: 6.28%
N#Cc1c(N)nc(SCc2ccncc2)c(C#N)c1-c1cccs1 | inactive: 37.9%
CC1CC(C)CN(C(=O)c2ccc(C(=O)c3ccccc3)cc2)C1 (stereo unspecified) | inactive: -1.75%
CC(C)(C)C1CCC(=O)N(CCSc2ccccc2)CC1 (stereo unspecified) | inconclusive: -34.2%

SMILES | max response, negative = inhibition
COC(=O)CC1C(=O)NCCN1C(=O)CSc1nc2ccccc2o1 (stereo unspecified) | inactive: 0.722%
CNc1ccccc1C(C)(C)c1cc(-c2cc(C)cc(C)c2)no1 | inconclusive: -44.6%
Cc1cc(C(=O)N2CCN(C/C=C/c3ccccc3)CC2)cs1 | inconclusive: -33.7%
CCC(c1c(C)[nH]oc1=O)c1c(C)[nH]oc1=O | inconclusive: -41.1%
COc1ccc(S(=O)(=O)CCC(=O)NCCc2ccc(Cl)cc2)cc1 | inconclusive: -30.3%
NC1=C(Cl)C(=O)c2ccc(S(N)(=O)=O)cc2C1=O | inconclusive: -47.5%
COC(=O)c1ccc(CN2CCC(Oc3ccc(C(=O)N4CCCCC4)cc3)CC2)cc1 | inconclusive: -33.4%
CCSc1nnc(NC(=O)C2CCCN(C(=O)c3ccc(Cl)cc3)C2)s1 (stereo unspecified) | inconclusive: -47.4%
CCOc1ccc(NS(=O)(=O)c2ccc(C(=O)NC3CCN(Cc4ccccc4)CC3)cc2)cc1 | active: -68.8%
O=C(Nc1ccc([N+](=O)[O-])cc1)Nc1ccc2c(c1)OCCO2 | inconclusive: -42.7%
Cn1c(=O)c2[nH]c(Cc3cccc4ccccc34)nc2n(C)c1=O | inactive: 30.2%
N/C(=N\OC(=O)Cc1ccc([N+](=O)[O-])cc1)c1cccc(Br)c1 | inactive: -16.7%
O=C(CCN1CCN(c2ccccc2)CC1)NNC(=O)Cc1ccccc1Cl | inconclusive: -45.9%
COc1ccc(S(=O)(=O)N2CCC(C(=O)NCc3ccncc3)CC2)cc1OC | inactive: 4.01%
CC1(C)CC(=O)C2=C(C1)NC(=O)CC2c1ccc(F)cc1 (stereo unspecified) | inconclusive: -37%
Nc1ccc2ccc(O)cc2c1 | inactive: -28.4%
Cc1cccc(N=C2NC(=O)/C(=C3/C(=O)N(C)c4ccccc43)S2)c1C | active: -93.4%
OCCN1CCN(CCOc2cccc(Cl)c2)CC1 | inconclusive: -48.7%
O=[N+]([O-])c1cccnc1N1CCC(c2cc(-c3ccc(Cl)cc3)n[nH]2)CC1 | inconclusive: -30.8%
CCN(Cc1ccccc1)Cc1ccc(OCc2ccccc2)c(OC)c1 | inconclusive: -46.9%
CCN(CC(=O)Nc1ccc(OC)c(Cl)c1)CC(=O)NC(C)C | inactive: -28.5%
CCCCOc1ccc(C(=O)Nc2ccc(SC(F)F)cc2)cc1OC | inconclusive: -36.5%
CN(Cc1ccc(Cl)cc1Cl)C(=O)CN1C(=O)NC2(CCCC2)C1=O | inactive: -24.9%

5 entries from above, ordered by formula weight, ascending.
SMILES | max response, negative = inhibition
Nc1ccc2ccc(O)cc2c1 | inactive: -28.4%
CCC(c1c(C)[nH]oc1=O)c1c(C)[nH]oc1=O | inconclusive: -41.1%
CC1(C)CC(=O)C2=C(C1)NC(=O)CC2c1ccc(F)cc1 (stereo unspecified) | inconclusive: -37%
CCN(CC(=O)Nc1ccc(OC)c(Cl)c1)CC(=O)NC(C)C | inactive: -28.5%
COC(=O)CC1C(=O)NCCN1C(=O)CSc1nc2ccccc2o1 (stereo unspecified) | inactive: 0.722%

The list continues.

SMILES | max response, negative = inhibition
O=C(Cc1ccccc1)NC(=S)Nc1cc(C(F)(F)F)ccc1Cl | inconclusive: -32.8%
N#CCCN1CCN(Cn2c3ccccc3c3ccccc32)CC1 | inactive: 11.7%
COc1ccc(NC(=S)NCCc2ccc(Cl)cc2)c(OC)c1 | inconclusive: -30.6%
O=C(Nc1cccc(Br)c1)c1ccc2nc(N3C(=O)CCC3=O)sc2c1 | inconclusive: -42.3%
O=C(Nc1ccc(CN2CCOCC2)cc1)c1ccc(N2CCCC2)c([N+](=O)[O-])c1 | inconclusive: -31%
CC(CN1CCCCC1)NC(=O)c1scnc1-c1ccccc1 (stereo unspecified) | active: -83.9%
Cc1cc(C(=O)NCCCN2CCN(c3cc(Cl)ccc3C)CC2)n(-c2ccccc2)n1 | active: -65.3%
COc1ccccc1N(CC(=O)Nc1ccccc1C(F)(F)F)S(=O)(=O)c1cccs1 | inconclusive: -30.1%
O=S(=O)(Nc1cccc(C(F)(F)F)c1)c1cccnc1 | inconclusive: -39.3%
COc1ccc(-c2n[nH]c(=S)n2/N=C/C=C/c2ccccc2OC)cc1 | inconclusive: -47.3%
Cn1c(=O)c2c(nc(SCc3ccccc3)n2Cc2ccc(Cl)cc2)n(C)c1=O | inactive: 0.933%
Cc1cccn2c(=O)c3cc(C(=O)NCC4CCCO4)c(=N)n(C4CCCC4)c3nc12 (stereo unspecified) | inactive: 3.05%
CN1CCC(=C(c2ccc(Cl)cc2)c2ccccn2)CC1 | inconclusive: -32.3%
CN(C)CCCNc1ncnc2scc(-c3ccccc3)c12 | inconclusive: -34.9%
COc1ccccc1N1CCN(CC(O)c2c(C)[nH]c3ccccc23)CC1 (stereo unspecified) | active: -79.3%
Cc1oc(-c2cccc(Cl)c2)nc1CN1CCCC(C(=O)NC(C)c2ccc3c(c2)OCCO3)C1 (stereo unspecified) | inactive: -6.36%
CC1CCN(CCCNC(=O)c2coc3nc4ccccc4nc23)CC1 | active: -77.8%
Cc1cccc(NC(=O)CSc2nc(C)c(CC(=O)c3ccc(Br)cc3)c(C)c2C#N)c1C | active: -53.4%
Nc1nc(-c2cc(Cl)cc(Cl)c2OC(F)F)cs1 | inactive: 4.67%
CSCC[C@H](NC(=O)OC(C)(C)C)c1nnc(SCc2ccc(F)cc2)o1 | inactive: -2.46%
CC1CCc2c(sc3ncnc(NCCN4CCOCC4)c23)C1 (stereo unspecified) | active: -70.9%
CC(C)c1ccc(C2CC(=O)N3CN(Cc4ccco4)CSC3=C2C#N)cc1 (stereo unspecified) | inconclusive: -33%
Cc1nc(NS(=O)(=O)c2cccs2)c2c3c(sc2n1)CCC3 | inconclusive: -45.5%

SMILES | max response, negative = inhibition
Cc1ccc(C(OCC(O)CNC(C)c2ccccc2)c2ccccc2)cc1 (stereo unspecified) | inactive: -7.34%
COc1ccccc1N1CCN(CCCN2C(=O)C3CCCCN3C2=O)CC1 (stereo unspecified) | active: -65.6%
CC(C)(C)n1ncc2c(=O)n(CC(=O)NCc3ccc(F)cc3)cnc21 | inactive: 3.67%
Cn1c(-c2cccc(Br)c2)n[nH]c1=O | inactive: -13%
Cc1ccc(CN2CCN(Cc3ccc(-n4cccn4)cc3C)CC2CCO)cc1 (stereo unspecified) | inconclusive: -34.7%
Cc1cccc(Nc2n[nH]c(C)c2[N+](=O)[O-])c1 | inconclusive: -33.1%
COc1ccc(C)cc1NC(=O)CCC(=O)Nc1ccc2nc(N3CCN(C)CC3)cc(C)c2c1 | inconclusive: -49.7%
Cc1nc2ccc(NC(=O)N3CCCCC3)cc2nc1C | inactive: -25.3%
O=C1C2CCCN2C(=O)N1CCCCN1CCN(c2cccc(Cl)c2)CC1 (stereo unspecified) | active: -57.8%
CS(=O)(=O)c1ccc(C(=O)OCC(=O)Nc2cccnc2Cl)cc1[N+](=O)[O-] | active: -67.5%
COc1ccccc1C(=O)NC(CCSC)C(=O)NCC(c1ccco1)N(C)C (stereo unspecified) | active: -67.1%
COc1ccccc1CNC(=O)Nc1nc(C(N)C(C)C)cs1 (stereo unspecified) | inconclusive: -37.2%
c1ccc(N2CCN(Cc3cnc(N4CCOCC4)s3)CC2)cc1 | inconclusive: -48.4%
CCn1cc([N+](=O)[O-])nc1C | inconclusive: -31.8%
Nc1c(C(=O)O)sc2nc(-c3ccccc3)cc(-c3ccc(Cl)cc3)c12 | inactive: 0%
COc1ccc(S(=O)(=O)N(C)CC(=O)NCCN2CCOCC2)cc1C | inactive: 2.72%
C=CCN(CC=C)C(=S)NC(=O)c1ccc(C)c(Br)c1 | inactive: -19.5%
CCCCNC(=O)C1c2ccccc2OCC(=O)N1Cc1ccccn1 (stereo unspecified) | inconclusive: -30.8%
COc1ccc2ccccc2c1CNc1nnnn1C | inconclusive: -32.8%
COc1ccccc1N1CCN(C2CCCN(C(=O)c3cc(C4CC4)on3)C2)CC1 (stereo unspecified) | inactive: -8.79%
Clc1cccc(-c2ccc(CNCCCN3CCOCC3)o2)c1 | active: -80.3%
CC(=O)c1cccc(OCC(=O)N(C)CC(=O)NCc2ccco2)c1 | inconclusive: -32.3%
